Here are results for 3 molecules from PMC5902029.

Chains of the proteins cited; added tags and fusions are not shown. Residues count along the entry.
UniProt Q5NCH9, residues 24-871: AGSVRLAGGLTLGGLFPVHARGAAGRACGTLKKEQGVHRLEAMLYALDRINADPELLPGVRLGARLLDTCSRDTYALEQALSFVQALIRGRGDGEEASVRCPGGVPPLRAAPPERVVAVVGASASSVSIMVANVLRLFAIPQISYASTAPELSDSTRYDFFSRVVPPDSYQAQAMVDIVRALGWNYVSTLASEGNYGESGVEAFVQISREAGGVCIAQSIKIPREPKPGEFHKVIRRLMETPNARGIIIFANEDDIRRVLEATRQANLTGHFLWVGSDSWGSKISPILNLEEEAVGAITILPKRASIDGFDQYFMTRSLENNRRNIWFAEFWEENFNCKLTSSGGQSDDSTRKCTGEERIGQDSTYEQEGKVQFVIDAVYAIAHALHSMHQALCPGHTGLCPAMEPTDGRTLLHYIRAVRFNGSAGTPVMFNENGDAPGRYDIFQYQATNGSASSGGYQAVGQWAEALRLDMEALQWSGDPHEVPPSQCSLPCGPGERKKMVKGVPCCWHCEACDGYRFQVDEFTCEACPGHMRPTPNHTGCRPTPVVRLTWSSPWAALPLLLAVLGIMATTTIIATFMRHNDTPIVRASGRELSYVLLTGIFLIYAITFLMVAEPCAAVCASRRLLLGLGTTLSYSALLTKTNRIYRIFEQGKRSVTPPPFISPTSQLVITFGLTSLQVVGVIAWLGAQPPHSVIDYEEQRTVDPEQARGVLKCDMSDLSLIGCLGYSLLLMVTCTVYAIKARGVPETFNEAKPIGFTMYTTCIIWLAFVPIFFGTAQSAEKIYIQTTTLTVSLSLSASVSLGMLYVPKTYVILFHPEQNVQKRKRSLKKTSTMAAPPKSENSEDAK

Assay [1] concerns the target T1, LRIT1 expressed in transfected HEK293T cells (UniProt Q8K099).
T1 sequence: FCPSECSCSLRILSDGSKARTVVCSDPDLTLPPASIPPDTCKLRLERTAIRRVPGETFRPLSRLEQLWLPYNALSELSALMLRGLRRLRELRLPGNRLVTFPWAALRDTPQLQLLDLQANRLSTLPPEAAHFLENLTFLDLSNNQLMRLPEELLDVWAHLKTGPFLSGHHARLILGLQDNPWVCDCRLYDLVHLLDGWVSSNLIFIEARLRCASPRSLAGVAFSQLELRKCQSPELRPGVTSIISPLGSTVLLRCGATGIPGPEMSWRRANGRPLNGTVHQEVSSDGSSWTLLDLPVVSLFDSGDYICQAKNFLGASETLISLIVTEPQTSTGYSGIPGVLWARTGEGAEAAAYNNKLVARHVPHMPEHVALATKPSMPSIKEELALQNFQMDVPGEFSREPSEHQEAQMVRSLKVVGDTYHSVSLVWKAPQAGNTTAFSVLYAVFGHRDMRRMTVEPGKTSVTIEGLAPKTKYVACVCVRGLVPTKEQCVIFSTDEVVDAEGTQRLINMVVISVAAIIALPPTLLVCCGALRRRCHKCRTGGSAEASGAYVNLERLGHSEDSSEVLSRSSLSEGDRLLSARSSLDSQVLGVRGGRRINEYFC
Description: co-IP; HEK293T cells co-transfected with combinations of mGluR6 and LRIT1; forward and reverse immunoprecipitation with anti-LRIT1 and anti-mGluR6 antibodies; detection by western blotting.

The target of assay [2] is mGluR6 (metabotropic glutamate receptor 6), endogenous in mouse retina (mouse (endogenous in retina)) (UniProt Q5NCH9). Description: co-IP; anti-mGluR6 immunoprecipitation from wild-type mouse retina lysates; LRIT1 and mGluR6 detected in the eluates by western blotting; nob3 retinas lacking mGluR6 as specificity control.
The target of assay [3] is mGluR6 expressed in transfected HEK293T cells (UniProt Q5NCH9). Description: co-IP; HEK293T cells co-transfected with combinations of mGluR6 and LRIT1; forward and reverse immunoprecipitation with anti-LRIT1 and anti-mGluR6 antibodies; detection by western blotting. For orientation: A western blot detects proteins with antibodies after separation by electrophoresis.

Results are given in words; binding and its absence hold for the method and conditions named. Binding seen in cells or lysates may run through a third protein. Some results given as binding are weak or reduced against the parent protein; the word gives no strength.

“mGluR6 expressed in transfected HEK293T cells (from UniProt Q5NCH9 24-871) (receptor)”: the binding result in assay [1] is on record as “binds”.

B1: LRIT1, endogenous in mouse retina (protein, UniProt Q8K099 22-624)
chain: FCPSECSCSLRILSDGSKARTVVCSDPDLTLPPASIPPDTCKLRLERTAIRRVPGETFRPLSRLEQLWLPYNALSELSALMLRGLRRLRELRLPGNRLVTFPWAALRDTPQLQLLDLQANRLSTLPPEAAHFLENLTFLDLSNNQLMRLPEELLDVWAHLKTGPFLSGHHARLILGLQDNPWVCDCRLYDLVHLLDGWVSSNLIFIEARLRCASPRSLAGVAFSQLELRKCQSPELRPGVTSIISPLGSTVLLRCGATGIPGPEMSWRRANGRPLNGTVHQEVSSDGSSWTLLDLPVVSLFDSGDYICQAKNFLGASETLISLIVTEPQTSTGYSGIPGVLWARTGEGAEAAAYNNKLVARHVPHMPEHVALATKPSMPSIKEELALQNFQMDVPGEFSREPSEHQEAQMVRSLKVVGDTYHSVSLVWKAPQAGNTTAFSVLYAVFGHRDMRRMTVEPGKTSVTIEGLAPKTKYVACVCVRGLVPTKEQCVIFSTDEVVDAEGTQRLINMVVISVAAIIALPPTLLVCCGALRRRCHKCRTGGSAEASGAYVNLERLGHSEDSSEVLSRSSLSEGDRLLSARSSLDSQVLGVRGGRRINEYFC
On to B1, for which, in assay [2], the binding result is on record as “binds”.

B2: LRIT1 expressed in transfected HEK293T cells (protein, UniProt Q8K099 22-624)
chain: FCPSECSCSLRILSDGSKARTVVCSDPDLTLPPASIPPDTCKLRLERTAIRRVPGETFRPLSRLEQLWLPYNALSELSALMLRGLRRLRELRLPGNRLVTFPWAALRDTPQLQLLDLQANRLSTLPPEAAHFLENLTFLDLSNNQLMRLPEELLDVWAHLKTGPFLSGHHARLILGLQDNPWVCDCRLYDLVHLLDGWVSSNLIFIEARLRCASPRSLAGVAFSQLELRKCQSPELRPGVTSIISPLGSTVLLRCGATGIPGPEMSWRRANGRPLNGTVHQEVSSDGSSWTLLDLPVVSLFDSGDYICQAKNFLGASETLISLIVTEPQTSTGYSGIPGVLWARTGEGAEAAAYNNKLVARHVPHMPEHVALATKPSMPSIKEELALQNFQMDVPGEFSREPSEHQEAQMVRSLKVVGDTYHSVSLVWKAPQAGNTTAFSVLYAVFGHRDMRRMTVEPGKTSVTIEGLAPKTKYVACVCVRGLVPTKEQCVIFSTDEVVDAEGTQRLINMVVISVAAIIALPPTLLVCCGALRRRCHKCRTGGSAEASGAYVNLERLGHSEDSSEVLSRSSLSEGDRLLSARSSLDSQVLGVRGGRRINEYFC
Consider B2, for which the binding result in assay [3] is given as “binds”.
